# These are yes or no findings as the source states them, for the method shown. In cells and extracts the contact can be indirect. Some binding calls cover weakened binding; strength is not graded here. For some assays here: Sequences can lack the tags named with a protein.
# Chains of the proteins cited; added tags and fusions are not shown. Residues count along the entry.
# UniProt Q13586, residues 23-685: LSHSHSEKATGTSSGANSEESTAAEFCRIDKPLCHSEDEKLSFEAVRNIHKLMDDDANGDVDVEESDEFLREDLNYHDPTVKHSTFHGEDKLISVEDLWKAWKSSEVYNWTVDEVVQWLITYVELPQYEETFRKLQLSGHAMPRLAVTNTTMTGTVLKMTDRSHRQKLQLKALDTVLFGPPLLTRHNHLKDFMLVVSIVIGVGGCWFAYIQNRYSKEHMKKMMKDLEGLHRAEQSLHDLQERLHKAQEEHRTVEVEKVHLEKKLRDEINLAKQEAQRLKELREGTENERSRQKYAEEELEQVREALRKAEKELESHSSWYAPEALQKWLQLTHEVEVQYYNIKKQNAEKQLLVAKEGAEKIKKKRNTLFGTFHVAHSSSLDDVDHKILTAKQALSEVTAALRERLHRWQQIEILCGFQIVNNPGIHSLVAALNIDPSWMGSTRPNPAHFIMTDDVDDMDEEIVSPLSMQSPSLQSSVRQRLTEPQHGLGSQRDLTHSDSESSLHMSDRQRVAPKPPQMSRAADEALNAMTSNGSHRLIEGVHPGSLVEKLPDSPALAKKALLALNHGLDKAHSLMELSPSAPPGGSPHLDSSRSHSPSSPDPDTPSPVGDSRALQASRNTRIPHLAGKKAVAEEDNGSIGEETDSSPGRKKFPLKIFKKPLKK
# UniProt P70302, residues 23-685: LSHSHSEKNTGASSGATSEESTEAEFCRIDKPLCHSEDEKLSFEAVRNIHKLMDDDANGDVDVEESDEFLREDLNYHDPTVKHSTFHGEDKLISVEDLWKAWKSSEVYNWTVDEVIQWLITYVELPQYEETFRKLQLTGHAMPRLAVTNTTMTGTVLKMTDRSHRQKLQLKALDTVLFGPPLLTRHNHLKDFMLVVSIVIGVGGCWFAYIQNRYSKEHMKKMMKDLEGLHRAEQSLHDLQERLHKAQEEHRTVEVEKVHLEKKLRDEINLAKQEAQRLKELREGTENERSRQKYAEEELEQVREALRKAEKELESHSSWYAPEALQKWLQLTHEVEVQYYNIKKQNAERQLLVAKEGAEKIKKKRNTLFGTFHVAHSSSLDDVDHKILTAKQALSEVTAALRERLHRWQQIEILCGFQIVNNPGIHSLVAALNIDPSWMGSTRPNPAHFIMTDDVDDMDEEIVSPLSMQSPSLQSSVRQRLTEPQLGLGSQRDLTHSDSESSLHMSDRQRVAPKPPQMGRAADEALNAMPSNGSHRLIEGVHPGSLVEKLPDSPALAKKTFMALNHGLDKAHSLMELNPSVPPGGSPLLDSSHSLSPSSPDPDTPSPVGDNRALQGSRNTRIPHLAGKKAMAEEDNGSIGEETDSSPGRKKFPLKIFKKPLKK
# T1: GFP-tagged TRPP2 without N1 (2-111aa, ∆N1) (human) (UniProt Q13563)
# T1 sequence: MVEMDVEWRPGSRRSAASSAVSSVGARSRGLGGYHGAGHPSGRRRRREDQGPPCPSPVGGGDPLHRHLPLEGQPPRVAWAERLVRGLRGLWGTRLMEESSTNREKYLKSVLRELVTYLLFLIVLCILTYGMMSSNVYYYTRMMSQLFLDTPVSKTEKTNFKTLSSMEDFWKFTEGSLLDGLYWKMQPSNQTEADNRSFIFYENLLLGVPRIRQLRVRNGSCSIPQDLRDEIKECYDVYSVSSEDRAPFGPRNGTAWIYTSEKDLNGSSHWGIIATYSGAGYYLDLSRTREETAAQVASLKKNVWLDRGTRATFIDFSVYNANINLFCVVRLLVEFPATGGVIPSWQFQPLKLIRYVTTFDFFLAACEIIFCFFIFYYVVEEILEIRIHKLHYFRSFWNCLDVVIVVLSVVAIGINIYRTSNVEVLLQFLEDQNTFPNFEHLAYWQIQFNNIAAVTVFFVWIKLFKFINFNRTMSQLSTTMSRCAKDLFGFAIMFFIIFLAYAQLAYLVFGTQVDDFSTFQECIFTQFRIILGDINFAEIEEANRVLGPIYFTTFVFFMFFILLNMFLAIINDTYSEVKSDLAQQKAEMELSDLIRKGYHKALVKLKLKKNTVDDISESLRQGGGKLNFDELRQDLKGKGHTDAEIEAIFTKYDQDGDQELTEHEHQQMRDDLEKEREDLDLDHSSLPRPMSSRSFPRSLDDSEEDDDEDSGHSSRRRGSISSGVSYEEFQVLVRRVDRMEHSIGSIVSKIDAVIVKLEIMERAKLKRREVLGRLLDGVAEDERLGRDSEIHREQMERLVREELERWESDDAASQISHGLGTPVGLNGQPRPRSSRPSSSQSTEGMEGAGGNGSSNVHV
# T2: GFP-tagged TRPP2 without N2 (112-221aa, ∆N2) (human) (UniProt Q13563)
# T2 sequence: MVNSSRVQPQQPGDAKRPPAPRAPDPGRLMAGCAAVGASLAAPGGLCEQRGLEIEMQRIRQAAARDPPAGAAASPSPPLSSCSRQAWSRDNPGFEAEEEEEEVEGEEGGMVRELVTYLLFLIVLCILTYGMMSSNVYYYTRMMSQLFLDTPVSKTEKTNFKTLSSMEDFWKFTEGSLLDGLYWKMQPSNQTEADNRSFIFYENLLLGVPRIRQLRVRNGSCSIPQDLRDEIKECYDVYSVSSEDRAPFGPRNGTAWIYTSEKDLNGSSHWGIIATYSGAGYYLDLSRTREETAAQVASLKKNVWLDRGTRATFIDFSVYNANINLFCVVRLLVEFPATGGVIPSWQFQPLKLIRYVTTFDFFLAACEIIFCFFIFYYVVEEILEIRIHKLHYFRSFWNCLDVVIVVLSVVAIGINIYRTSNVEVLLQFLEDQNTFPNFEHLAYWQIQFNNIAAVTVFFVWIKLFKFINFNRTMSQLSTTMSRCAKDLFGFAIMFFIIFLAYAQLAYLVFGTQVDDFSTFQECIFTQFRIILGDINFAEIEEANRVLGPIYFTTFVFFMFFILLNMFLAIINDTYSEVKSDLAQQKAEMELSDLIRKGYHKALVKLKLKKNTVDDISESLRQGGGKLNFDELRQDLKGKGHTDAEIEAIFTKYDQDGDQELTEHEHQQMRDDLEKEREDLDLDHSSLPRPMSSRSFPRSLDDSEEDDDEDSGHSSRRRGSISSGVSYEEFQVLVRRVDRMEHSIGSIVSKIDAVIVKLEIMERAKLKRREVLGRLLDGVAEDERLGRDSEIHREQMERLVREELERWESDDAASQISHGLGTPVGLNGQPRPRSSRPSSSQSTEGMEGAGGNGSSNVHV
# T3: GFP-tagged full-length TRPP2 (WT) (human) (UniProt Q13563)
# T3 sequence: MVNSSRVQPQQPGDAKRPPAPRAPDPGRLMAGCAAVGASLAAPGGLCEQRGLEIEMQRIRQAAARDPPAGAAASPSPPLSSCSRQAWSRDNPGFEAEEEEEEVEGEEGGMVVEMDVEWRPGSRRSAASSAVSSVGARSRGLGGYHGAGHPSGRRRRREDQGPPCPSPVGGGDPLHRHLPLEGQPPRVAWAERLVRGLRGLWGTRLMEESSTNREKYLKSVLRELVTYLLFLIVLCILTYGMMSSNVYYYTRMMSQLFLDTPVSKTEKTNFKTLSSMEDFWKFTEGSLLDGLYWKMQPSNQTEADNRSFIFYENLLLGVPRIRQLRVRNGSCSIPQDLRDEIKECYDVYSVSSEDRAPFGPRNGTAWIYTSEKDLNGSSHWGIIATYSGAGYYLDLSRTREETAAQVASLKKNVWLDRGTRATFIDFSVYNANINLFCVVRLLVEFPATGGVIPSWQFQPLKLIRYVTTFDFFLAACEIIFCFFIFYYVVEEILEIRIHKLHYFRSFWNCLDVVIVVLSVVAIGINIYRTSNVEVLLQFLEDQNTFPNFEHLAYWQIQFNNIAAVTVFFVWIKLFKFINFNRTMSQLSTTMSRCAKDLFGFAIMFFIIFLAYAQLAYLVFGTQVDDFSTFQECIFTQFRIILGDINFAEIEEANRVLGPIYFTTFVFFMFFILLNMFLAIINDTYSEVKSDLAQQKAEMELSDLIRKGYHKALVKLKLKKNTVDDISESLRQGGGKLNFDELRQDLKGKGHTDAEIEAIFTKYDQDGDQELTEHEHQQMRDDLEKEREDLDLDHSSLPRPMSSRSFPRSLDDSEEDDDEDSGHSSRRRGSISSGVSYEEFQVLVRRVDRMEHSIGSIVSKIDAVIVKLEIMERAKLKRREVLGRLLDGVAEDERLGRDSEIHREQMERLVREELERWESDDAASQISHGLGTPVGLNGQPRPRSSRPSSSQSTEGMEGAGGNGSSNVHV
# T4: endogenous TRPP2 of mouse vascular smooth muscle cells (mouse (endogenous in aortic VSMCs)) (UniProt O35245)
# T4 sequence: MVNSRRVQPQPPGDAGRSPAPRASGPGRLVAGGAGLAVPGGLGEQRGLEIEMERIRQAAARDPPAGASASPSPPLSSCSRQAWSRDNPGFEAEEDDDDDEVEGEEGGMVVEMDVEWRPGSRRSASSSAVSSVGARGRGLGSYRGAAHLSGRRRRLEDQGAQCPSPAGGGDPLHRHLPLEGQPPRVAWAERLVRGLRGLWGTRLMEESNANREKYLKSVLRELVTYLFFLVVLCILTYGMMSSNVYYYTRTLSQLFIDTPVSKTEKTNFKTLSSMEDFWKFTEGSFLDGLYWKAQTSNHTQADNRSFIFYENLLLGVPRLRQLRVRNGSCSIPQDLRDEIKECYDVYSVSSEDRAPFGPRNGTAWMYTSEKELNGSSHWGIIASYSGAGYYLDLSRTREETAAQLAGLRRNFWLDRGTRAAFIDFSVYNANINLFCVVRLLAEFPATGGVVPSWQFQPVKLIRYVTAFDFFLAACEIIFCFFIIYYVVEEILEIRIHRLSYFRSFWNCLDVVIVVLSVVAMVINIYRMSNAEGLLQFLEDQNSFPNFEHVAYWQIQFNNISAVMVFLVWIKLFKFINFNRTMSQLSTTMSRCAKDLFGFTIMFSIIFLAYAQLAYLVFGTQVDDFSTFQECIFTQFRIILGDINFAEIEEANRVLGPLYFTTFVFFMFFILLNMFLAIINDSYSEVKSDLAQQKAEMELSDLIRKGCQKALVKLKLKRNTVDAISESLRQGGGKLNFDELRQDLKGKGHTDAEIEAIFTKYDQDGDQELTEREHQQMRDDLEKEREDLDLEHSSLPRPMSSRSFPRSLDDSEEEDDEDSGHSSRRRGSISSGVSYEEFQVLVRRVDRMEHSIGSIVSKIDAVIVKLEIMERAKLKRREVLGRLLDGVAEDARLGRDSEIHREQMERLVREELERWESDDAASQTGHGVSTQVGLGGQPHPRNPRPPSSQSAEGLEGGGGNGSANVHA
# T5: mCherry-TRPP2 (mCherry fused at the N-terminus of TRPP2) (human) (UniProt Q13563)
# T5 sequence: T3 sequence
# T6: C-terminal GFP-tagged TRPP2 (polycystin-2) (human) (UniProt Q13563)
# T6 sequence: T3 sequence
# B1: C-terminal GFP-tagged TRPP2 (polycystin-2) (protein, UniProt Q13563 1-968)
# chain: T3 sequence
# Assays:
# [1] = biological target: T1, GFP-tagged TRPP2 without N1 (2-111aa, ∆N1) (human); experiment: co-IP; HEK293 cells co-transfected with tagged TRPP2 constructs and STIM1; extraction in 1% Nonidet P-40, 150 mmol/L NaCl, 20 mmol/L Tris-HCl pH 8.0; IP with GFP or mCherry antibody overnight at 4 °C, protein A, immunoblot
# [2] = biological target: T2, GFP-tagged TRPP2 without N2 (112-221aa, ∆N2) (human); experiment: as above
# [3] = biological target: T3, GFP-tagged full-length TRPP2 (WT) (human); experiment: as above
# [4] = biological target: T4, endogenous TRPP2 of mouse vascular smooth muscle cells (mouse (endogenous in aortic VSMCs)); experiment: proximity ligation; in situ Duolink PLA on fixed, permeabilized freshly isolated mouse VSMCs with anti-TRPP2 and anti-STIM1; anti-STIM1 alone as negative control; < 40 nm
# [5] = biological target: T4, endogenous TRPP2 of mouse vascular smooth muscle cells (mouse (endogenous in aortic VSMCs)); experiment: co-IP; endogenous proteins of mouse aortic smooth muscle cells; extraction in 1% Nonidet P-40, 150 mmol/L NaCl, 20 mmol/L Tris-HCl pH 8.0; IP with anti-TRPP2 or anti-STIM1 overnight at 4 °C (no antibody as control), immunoblot
# [6] = biological target: T5, mCherry-TRPP2 (mCherry fused at the N-terminus of TRPP2) (human); experiment: FRET or BRET; sensitized emission FRET, GFP donor and mCherry acceptor, co-transfected HEK293 cells, Leica confocal; GFP-mCherry fusion as positive and separate GFP and mCherry as negative control
# [7] = biological target: T6, C-terminal GFP-tagged TRPP2 (polycystin-2) (human); experiment: co-IP; HEK293 cells co-transfected with tagged TRPP2 constructs and STIM1; extraction in 1% Nonidet P-40, 150 mmol/L NaCl, 20 mmol/L Tris-HCl pH 8.0; IP with GFP or mCherry antibody overnight at 4 °C, protein A, immunoblot
# [8] = biological target: N-terminal mCherry-tagged STIM1 (stromal interaction molecule 1) (human) (UniProt Q13586); experiment: as above
molecule,measurement,setting,value
STIM1 co-expressed with the GFP-tagged TRPP2 constructs (from UniProt Q13586 23-685),binding,[1],binds weakly
same,binding,[2],binds
same,binding,[3],binds
endogenous STIM1 of mouse vascular smooth muscle cells (from UniProt P70302 23-685),binding,[4],binds
same,binding,[5],binds
STIM1-GFP (from UniProt Q13586 23-685),binding,[6],binds
N-terminal mCherry-tagged STIM1 (stromal interaction molecule 1) (from UniProt Q13586 23-685),binding,[7],binds
B1,binding,[8],binds

# — article PMC7457527
